No constants are given. Whether binding was seen depends on the method and setting. Binding seen in cells or lysates may run through a third protein. A yes stands for co-enrichment or nearness to the bait. Other partners may have been found. For some of these results: A no says only that the protein was not detected with the bait.

Protein sequences, listed by entry. Tags and fused reporters are not part of them.
UniProt P51532: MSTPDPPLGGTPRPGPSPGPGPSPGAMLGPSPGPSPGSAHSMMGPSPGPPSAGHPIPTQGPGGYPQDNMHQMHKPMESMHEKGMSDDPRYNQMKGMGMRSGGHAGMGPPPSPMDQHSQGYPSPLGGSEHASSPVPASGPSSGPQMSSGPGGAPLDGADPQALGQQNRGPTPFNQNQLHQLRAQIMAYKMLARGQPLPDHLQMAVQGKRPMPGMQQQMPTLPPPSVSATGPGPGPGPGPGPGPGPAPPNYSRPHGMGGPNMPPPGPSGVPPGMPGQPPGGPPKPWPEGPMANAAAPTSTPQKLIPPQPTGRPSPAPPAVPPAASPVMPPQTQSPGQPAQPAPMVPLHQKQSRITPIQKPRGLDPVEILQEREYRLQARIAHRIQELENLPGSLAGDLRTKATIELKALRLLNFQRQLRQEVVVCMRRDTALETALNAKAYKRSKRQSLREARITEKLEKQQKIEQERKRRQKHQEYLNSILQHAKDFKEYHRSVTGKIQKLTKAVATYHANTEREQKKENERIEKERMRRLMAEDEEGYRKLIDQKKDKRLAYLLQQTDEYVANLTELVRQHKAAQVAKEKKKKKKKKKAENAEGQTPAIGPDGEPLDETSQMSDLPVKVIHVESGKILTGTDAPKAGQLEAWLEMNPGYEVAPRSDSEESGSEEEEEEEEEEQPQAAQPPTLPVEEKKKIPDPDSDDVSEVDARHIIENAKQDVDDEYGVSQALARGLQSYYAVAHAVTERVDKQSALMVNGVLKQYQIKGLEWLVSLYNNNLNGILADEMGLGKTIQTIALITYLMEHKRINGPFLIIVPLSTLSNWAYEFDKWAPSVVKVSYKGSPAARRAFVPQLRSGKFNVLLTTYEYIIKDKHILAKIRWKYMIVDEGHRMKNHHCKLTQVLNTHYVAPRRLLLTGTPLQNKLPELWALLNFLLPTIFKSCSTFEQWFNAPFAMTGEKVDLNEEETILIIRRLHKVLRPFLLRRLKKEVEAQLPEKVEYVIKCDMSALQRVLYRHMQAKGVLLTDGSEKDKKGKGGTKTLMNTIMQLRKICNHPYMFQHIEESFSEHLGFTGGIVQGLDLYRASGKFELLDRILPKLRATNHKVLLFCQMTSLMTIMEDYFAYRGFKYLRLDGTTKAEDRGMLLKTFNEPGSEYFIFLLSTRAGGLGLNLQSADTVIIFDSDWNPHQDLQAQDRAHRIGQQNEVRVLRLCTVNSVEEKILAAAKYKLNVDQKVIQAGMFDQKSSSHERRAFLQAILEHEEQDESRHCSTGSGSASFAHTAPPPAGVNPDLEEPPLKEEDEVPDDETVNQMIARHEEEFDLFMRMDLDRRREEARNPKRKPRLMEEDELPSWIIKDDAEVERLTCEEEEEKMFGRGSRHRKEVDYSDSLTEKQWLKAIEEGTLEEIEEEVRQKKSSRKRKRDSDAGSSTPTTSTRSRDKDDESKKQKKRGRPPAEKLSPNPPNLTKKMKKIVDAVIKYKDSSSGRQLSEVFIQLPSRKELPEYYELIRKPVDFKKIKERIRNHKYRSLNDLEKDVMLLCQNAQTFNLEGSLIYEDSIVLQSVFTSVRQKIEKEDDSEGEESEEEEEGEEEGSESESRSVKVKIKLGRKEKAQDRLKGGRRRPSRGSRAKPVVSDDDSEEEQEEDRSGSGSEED
UniProt Q9NZM4: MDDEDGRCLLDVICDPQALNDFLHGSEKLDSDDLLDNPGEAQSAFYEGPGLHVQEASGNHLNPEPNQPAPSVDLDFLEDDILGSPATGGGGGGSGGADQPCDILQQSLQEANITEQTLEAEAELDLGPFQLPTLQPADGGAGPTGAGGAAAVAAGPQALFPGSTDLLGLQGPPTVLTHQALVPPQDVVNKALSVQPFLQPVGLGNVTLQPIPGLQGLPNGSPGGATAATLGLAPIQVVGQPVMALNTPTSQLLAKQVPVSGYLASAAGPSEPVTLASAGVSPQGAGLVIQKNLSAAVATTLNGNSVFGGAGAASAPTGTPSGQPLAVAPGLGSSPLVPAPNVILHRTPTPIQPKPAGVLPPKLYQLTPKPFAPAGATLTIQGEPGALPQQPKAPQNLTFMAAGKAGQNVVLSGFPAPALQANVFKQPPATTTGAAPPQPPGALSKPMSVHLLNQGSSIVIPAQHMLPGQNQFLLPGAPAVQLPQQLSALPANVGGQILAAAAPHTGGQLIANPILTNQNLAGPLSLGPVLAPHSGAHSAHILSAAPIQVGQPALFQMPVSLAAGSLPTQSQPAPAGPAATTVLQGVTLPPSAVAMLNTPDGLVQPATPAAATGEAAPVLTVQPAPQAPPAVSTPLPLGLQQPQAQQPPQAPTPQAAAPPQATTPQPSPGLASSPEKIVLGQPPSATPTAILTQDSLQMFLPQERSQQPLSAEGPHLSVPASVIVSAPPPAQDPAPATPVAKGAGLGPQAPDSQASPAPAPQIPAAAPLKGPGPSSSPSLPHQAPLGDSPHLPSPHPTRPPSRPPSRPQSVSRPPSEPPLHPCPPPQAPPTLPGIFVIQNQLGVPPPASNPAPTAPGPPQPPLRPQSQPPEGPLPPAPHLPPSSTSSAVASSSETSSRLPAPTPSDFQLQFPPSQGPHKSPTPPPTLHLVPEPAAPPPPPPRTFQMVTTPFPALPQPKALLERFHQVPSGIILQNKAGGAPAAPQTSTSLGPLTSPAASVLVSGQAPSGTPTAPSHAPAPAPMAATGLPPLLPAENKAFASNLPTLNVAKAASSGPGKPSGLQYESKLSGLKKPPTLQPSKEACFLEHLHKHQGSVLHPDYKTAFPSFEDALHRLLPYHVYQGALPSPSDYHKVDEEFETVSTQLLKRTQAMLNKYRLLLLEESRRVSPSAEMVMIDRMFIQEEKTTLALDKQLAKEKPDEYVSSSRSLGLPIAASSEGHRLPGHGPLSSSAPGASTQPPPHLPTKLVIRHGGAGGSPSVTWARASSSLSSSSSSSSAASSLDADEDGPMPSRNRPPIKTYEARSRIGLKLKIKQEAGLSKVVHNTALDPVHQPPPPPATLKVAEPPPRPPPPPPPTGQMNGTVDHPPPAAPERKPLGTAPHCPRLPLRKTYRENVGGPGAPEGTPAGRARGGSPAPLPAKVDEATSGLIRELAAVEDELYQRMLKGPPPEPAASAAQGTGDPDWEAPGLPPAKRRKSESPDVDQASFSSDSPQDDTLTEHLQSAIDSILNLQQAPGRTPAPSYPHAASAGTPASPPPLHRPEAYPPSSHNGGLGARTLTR
UniProt Q6STE5: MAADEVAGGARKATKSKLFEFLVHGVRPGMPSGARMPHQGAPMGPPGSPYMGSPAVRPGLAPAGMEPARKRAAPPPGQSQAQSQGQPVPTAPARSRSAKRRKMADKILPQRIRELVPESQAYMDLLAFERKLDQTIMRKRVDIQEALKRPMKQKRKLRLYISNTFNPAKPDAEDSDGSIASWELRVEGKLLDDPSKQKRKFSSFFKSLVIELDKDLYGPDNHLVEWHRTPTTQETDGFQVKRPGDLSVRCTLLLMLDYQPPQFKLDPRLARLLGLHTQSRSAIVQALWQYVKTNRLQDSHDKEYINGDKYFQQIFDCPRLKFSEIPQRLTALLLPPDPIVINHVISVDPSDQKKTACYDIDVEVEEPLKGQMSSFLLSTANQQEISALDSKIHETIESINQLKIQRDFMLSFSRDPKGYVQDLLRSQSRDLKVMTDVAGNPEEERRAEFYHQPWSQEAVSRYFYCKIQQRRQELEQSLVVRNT
UniProt Q92785: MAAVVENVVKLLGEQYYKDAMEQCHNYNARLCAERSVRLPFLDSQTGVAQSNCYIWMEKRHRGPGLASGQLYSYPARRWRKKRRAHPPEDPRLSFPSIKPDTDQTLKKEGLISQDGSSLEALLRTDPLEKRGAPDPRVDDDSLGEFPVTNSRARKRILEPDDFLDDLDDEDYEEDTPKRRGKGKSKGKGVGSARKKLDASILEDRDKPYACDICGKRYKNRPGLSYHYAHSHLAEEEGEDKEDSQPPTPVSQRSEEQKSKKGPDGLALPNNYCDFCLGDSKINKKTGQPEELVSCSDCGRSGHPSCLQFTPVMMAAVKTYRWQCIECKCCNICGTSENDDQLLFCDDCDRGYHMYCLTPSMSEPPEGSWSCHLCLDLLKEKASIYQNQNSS
UniProt Q92925: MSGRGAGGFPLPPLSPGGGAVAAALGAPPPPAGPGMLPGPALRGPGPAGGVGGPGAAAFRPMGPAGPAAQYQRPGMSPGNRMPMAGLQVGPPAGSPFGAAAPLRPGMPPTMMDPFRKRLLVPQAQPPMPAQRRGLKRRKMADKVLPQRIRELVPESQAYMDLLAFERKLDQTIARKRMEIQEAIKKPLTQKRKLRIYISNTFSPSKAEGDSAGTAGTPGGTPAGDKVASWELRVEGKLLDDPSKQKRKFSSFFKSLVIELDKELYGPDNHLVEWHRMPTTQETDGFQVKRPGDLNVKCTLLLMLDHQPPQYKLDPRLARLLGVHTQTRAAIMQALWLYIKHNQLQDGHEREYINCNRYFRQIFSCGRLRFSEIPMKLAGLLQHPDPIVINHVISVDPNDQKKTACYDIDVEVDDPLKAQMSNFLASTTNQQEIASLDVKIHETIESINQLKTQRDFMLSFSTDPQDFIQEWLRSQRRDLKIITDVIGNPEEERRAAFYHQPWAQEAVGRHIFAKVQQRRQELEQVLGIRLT
UniProt Q9H8M2: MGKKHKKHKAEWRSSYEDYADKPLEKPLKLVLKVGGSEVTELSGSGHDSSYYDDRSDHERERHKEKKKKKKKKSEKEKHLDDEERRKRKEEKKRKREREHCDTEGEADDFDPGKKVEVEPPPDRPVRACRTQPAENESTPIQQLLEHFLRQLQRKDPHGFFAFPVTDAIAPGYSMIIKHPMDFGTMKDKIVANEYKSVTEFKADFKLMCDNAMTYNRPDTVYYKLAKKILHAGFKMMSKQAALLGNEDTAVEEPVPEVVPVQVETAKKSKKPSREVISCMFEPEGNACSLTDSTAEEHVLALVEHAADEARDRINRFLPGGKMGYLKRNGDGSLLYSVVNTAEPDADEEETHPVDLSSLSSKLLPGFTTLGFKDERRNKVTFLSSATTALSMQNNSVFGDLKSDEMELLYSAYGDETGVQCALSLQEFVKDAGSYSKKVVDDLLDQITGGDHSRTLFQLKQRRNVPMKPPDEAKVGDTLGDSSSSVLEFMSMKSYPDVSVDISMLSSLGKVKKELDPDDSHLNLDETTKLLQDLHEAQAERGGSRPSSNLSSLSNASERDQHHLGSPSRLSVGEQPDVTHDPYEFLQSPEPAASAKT

Assay [1] has as its target SMARCA4 (BRG1) (human (endogenous in G401)) (UniProt P51532). The assay can be described thus: affinity purification with mass spectrometry; SMARCA4 immunoprecipitated with BRG1 (G7) antibody cross-linked to Protein G magnetic beads from 800 ug nuclear extract of G401 cells after 48 h induction of wild type, missense (W281P, I315R) or nonsense (W281*, I315*) SMARCB1; overnight at 4 °C; on-bead digestion, LC-MS/MS, label-free quantification.

The target is the same in assay [2]. Put plainly: condition: only in G401 cells re-expressing SMARCB1 W281P or I315R instead of wild type; affinity purification with mass spectrometry; as a1, the samples from G401 cells re-expressing SMARCB1 W281P or I315R compared with wild type SMARCB1 (L2FC < -1.5, p < 0.05).

Take GLTSCR1 (from UniProt Q9NZM4 1-1560): in assay [1], the binding entry was “binds”. The same measure, in the same setting: in the case of SMARCD3 (from UniProt Q6STE5 1-483) it was “binds”. On to DPF2 (from UniProt Q92785 1-391), for which the binding result is on record as “binds” in assay [1] and “no binding” in assay [2]. As to SMARCD2 (from UniProt Q92925 1-531), the binding entry in assay [1] was “binds”.

With BRD9 (from UniProt Q9H8M2 1-597), the binding result in assay [1] is recorded as “binds”.

B1: PHF10 (protein, UniProt Q8WUB8 1-498)
chain: MAAAAGPGAALSPRPCDSDPATPGAQSPKDDNEDNSNDGTQPSKRRRMGSGDSSRSCETSSQDLGFSYYPAENLIEYKWPPDETGEYYMLQEQVSEYLGVTSFKRKYPDLERRDLSHKEKLYLRELNVITETQCTLGLTALRSDEVIDLMIKEYPAKHAEYSVILQEKERQRITDHYKEYSQMQQQNTQKVEASKVPEYIKKAAKKAAEFNSNLNRERMEERRAYFDLQTHVIQVPQGKYKVLPTERTKVSSYPVALIPGQFQEYYKRYSPDELRYLPLNTALYEPPLDPELPALDSDGDSDDGEDGRGDEKRKNKGTSDSSSGNVSEGESPPDSQEDSFQGRQKSKDKAATPRKDGPKRSVLSKSVPGYKPKVIPNAICGICLKGKESNKKGKAESLIHCSQCENSGHPSCLDMTMELVSMIKTYPWQCMECKTCIICGQPHHEEEMMFCDMCDRGYHTFCVGLGAIPSGRWICDCCQRAPPTPRKVGRRGKNSKEG
As to B1, the binding result in assay [1] is given as “binds”.

The values are drawn from publication PMC13237135.
